Reference: paper PMC7923639
These are yes or no findings as the source states them, for the method shown. In cells and extracts the contact can be indirect. Some binding calls cover weakened binding; strength is not graded here.

Amino acid sequences for entries named in this document (tags omitted).
UniProt Q9NRC8: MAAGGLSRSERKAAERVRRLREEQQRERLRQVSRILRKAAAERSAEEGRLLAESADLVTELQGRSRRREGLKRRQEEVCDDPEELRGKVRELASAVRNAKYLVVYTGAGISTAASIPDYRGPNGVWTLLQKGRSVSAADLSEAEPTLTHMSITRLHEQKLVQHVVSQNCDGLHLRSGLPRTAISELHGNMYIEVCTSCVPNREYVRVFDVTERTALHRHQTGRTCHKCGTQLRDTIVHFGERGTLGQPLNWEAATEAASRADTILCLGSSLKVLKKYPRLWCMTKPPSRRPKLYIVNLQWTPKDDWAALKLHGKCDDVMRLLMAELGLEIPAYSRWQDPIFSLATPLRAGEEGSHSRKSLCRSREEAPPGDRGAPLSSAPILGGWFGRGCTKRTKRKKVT
UniProt Q9Y4B6: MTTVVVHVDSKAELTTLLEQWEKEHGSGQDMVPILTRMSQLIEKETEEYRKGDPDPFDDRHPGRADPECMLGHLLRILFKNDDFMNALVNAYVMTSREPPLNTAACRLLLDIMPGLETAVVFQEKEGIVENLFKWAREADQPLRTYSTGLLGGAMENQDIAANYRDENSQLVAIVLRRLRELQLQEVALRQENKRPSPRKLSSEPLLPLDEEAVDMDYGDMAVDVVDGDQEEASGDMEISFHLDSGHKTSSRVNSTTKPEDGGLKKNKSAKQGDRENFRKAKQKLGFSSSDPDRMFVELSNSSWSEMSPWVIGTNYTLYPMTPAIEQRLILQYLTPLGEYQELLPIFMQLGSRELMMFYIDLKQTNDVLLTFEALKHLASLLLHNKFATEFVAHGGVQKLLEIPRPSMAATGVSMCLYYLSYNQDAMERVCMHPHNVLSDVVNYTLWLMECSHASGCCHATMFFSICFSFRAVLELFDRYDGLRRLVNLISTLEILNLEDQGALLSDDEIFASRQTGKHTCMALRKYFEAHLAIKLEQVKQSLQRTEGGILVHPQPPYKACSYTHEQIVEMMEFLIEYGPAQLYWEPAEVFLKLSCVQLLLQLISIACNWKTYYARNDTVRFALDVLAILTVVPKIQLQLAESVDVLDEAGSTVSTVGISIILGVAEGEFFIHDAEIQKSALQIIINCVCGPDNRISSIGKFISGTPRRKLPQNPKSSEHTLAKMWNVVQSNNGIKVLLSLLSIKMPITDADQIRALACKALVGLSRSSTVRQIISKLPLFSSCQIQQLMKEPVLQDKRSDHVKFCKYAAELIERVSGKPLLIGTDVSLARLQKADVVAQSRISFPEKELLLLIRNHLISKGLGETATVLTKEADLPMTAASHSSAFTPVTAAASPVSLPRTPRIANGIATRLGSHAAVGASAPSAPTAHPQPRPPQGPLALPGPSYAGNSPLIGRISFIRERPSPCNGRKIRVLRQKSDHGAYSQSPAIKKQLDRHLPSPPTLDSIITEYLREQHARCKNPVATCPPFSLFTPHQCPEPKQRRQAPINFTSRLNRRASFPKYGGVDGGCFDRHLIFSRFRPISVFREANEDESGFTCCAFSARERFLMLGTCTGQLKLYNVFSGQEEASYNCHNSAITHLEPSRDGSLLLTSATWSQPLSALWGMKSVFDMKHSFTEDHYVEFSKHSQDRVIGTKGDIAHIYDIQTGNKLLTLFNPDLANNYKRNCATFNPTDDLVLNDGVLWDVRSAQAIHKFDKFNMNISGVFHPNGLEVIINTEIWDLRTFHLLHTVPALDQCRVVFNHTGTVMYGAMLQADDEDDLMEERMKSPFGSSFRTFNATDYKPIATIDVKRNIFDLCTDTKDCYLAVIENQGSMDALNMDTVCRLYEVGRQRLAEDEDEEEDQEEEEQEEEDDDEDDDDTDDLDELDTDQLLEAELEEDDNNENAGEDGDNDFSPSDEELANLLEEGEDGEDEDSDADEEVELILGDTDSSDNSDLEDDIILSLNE
UniProt Q16531: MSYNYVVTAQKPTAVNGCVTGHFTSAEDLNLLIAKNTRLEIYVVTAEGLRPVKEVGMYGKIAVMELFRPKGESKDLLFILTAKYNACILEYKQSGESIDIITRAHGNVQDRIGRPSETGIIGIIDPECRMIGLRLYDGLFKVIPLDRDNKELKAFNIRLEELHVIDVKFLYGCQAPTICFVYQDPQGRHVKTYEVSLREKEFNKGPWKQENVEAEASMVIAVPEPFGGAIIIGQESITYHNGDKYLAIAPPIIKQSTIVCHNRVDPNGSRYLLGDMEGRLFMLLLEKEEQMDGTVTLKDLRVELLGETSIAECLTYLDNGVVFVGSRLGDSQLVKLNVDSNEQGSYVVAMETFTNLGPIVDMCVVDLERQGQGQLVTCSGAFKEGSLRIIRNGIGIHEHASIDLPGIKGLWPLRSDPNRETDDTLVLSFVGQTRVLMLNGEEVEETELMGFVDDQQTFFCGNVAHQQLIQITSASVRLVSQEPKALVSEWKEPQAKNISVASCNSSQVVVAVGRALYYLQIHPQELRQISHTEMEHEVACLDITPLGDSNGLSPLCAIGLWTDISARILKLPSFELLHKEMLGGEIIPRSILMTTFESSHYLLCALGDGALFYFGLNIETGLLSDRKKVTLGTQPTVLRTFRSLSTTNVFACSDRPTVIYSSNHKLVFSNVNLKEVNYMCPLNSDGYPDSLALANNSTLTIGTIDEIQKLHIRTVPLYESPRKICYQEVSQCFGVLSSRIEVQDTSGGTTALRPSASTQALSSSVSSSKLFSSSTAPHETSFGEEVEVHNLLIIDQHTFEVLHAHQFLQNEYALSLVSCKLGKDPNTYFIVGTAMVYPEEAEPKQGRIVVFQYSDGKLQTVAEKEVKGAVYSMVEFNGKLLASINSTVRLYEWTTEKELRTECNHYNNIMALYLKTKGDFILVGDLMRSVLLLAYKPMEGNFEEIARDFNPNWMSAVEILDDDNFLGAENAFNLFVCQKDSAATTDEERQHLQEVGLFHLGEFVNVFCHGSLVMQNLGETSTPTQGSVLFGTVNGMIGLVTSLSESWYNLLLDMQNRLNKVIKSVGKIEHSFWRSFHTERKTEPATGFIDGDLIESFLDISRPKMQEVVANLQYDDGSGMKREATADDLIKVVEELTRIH

Key:
[1] = target: FLAG and HA-tagged SIRT7 (UniProt Q9NRC8); experiment: co-IP; FLAG-SIRT7 as bait, co-expressed with DDB1, DCAF1 and Vpr in HEK293T; anti-FLAG magnetic beads, 4 °C, 5 h; eluted with FLAG peptide; immunoblot (Fig. 1c)
[2] = target: FLAG and HA-tagged SIRT7 (UniProt Q9NRC8); experiment: co-IP; FLAG-SIRT7 as bait, co-expressed with DDB1 or with DDB1 and DCAF1 in HEK293T; anti-FLAG magnetic beads, 4 °C, 5 h; eluted with FLAG peptide; immunoblot (Fig. 1b)
[3] = target: FLAG-tagged DCAF1 (UniProt Q9Y4B6); experiment: co-IP; FLAG-DCAF1 as bait; HEK293T co-transfected, 48 h; lysate (50 mM Tris, 150 mM NaCl, 0.5% NP-40, pH 7.5) with anti-FLAG magnetic beads, 4 °C, 5 h; eluted with FLAG peptide; immunoblot (Fig. 1a, Fig. 3b)

binding [1]	binding [2]	binding [3]	Substance
binds	binds		HA-tagged DCAF1 (from UniProt Q9Y4B6 1-1507)
		binds	HA-tagged SIRT7 (from UniProt Q9NRC8 1-400)
binds	binds		Myc and HA-tagged DDB1 (from UniProt Q16531 1-1140)
